The results in this text go back to paper PMC8806762.

Protein sequences, listed by entry. Tags and fused reporters are not part of them. Residues count along the entry.
UniProt O95202, residues 116-739: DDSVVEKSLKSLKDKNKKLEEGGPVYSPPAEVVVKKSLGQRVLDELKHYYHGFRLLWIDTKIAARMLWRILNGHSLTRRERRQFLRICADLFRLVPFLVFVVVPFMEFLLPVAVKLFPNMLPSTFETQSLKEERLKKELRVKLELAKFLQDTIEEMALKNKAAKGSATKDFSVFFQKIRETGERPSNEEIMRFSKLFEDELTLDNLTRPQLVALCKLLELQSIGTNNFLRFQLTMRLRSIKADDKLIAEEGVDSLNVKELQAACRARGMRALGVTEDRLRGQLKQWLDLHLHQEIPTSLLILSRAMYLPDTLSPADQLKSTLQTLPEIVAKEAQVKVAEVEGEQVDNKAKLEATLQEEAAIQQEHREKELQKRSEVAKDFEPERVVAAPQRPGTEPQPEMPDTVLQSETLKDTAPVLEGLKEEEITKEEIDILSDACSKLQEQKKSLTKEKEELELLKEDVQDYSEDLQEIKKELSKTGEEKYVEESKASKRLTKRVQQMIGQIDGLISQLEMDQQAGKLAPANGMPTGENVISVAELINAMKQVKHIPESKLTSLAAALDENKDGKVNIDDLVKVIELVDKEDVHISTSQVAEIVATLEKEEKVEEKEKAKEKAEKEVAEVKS
UniProt Q15058: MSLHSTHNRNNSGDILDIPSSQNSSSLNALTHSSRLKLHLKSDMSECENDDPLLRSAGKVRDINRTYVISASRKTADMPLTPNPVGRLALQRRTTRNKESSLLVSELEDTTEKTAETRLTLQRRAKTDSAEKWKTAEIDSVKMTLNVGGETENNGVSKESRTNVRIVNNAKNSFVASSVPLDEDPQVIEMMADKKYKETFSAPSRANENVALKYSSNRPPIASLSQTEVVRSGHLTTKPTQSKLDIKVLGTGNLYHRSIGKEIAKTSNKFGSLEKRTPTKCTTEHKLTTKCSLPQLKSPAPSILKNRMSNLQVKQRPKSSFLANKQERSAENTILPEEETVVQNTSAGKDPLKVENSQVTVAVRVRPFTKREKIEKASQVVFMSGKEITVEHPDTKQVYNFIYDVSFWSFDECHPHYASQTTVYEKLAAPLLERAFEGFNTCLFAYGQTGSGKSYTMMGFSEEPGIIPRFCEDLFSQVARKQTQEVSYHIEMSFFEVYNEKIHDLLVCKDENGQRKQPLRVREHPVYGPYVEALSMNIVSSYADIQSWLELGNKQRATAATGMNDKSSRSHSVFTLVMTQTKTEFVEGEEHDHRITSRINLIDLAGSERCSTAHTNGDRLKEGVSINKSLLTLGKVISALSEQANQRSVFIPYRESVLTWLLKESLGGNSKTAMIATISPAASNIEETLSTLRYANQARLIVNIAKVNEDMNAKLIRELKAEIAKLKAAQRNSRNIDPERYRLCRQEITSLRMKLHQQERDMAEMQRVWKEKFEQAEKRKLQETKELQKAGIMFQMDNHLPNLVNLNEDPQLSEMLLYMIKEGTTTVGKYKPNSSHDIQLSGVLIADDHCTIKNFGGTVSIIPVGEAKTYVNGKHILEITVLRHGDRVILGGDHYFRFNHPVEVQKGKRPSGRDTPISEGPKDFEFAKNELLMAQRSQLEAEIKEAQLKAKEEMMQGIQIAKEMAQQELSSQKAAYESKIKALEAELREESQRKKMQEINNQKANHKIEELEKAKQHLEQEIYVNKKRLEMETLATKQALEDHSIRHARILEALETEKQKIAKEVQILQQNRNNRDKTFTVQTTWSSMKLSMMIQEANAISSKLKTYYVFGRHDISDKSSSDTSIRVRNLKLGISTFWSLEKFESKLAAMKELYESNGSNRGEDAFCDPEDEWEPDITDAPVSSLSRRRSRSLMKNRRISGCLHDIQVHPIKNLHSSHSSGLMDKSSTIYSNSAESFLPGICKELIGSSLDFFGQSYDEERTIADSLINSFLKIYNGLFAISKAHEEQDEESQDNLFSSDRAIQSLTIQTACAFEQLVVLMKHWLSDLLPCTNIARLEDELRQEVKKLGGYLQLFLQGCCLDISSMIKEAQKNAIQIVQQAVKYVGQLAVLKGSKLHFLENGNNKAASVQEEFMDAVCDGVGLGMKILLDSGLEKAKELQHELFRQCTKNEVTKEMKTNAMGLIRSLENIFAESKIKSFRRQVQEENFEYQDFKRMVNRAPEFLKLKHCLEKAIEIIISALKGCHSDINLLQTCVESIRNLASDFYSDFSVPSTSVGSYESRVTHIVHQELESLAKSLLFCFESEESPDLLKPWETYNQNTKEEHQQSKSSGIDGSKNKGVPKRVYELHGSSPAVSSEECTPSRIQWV

No constants are given. Whether binding was seen depends on the method and setting. In cells and extracts the contact can be indirect. Some results given as binding are weak or reduced against the parent protein; the word gives no strength.

Assay [1] has as its target Leucine zipper-EF-hand-containing transmembrane protein 1 (human (endogenous in TE11)) (UniProt O95202). The assay is described as follows: co-IP; endogenous proteins of ESCC cell lysate (RIPA); protein A/G agarose beads, 2 h at 4°C; IgG and LETM1 or KIF14 antibodies overnight at 4°C; washed three times with Co-IP buffer; western blot.
The target of assay [2] is Kinesin family member 14 (human (endogenous in TE11)) (UniProt Q15058). Described as above.

Consider “Kinesin family member 14 (from UniProt Q15058 1-1648)”, for which, in assay [1], the binding result is “binds”.
“Leucine zipper-EF-hand-containing transmembrane protein 1 (from UniProt O95202 116-739)”: the binding result in assay [2] was “binds”.
